# From patent US4952607A, “Copper complex for treating cancer” (priority 1986, dated 1990)
# Entries after “also recorded” stand apart in the source; their conditions may differ. For at least one compound, name, drawing or mass did not settle the structure.
# Test: O2^- scavenging / SOD activity, DMSO-KO2 nitro blue tetrazolium method
# Assay type: biochemical
# Settings: ligand alone
smiles,measurement,value
"CC(C)c1cc(C(=O)O)c(O)c(C(C)C)c1 [DIPS, diisopropylsalicylic acid]",O2^- scavenging ability / SOD-like activity,No apparent SOD-like activity; also recorded: no O2^- scavenging ability
